Source: the supplement of paper PMC8426693
The list shows a part of the results.

Columns and labels:
Experiment in all cases: NMR binding call after quantification (hit when 2 of 3 NMR criteria are met) (binary (1 = binding, 0 = not binding)); higher = binding
Conditions in all cases: RNA concentration 10 µM; fragment concentration 200 µM; 293 K
SARS-CoV-2 3'-UTR RNA = test system: SARS-CoV-2 3'-UTR RNA
SARS-CoV-2 3_SL1 RNA = test system: SARS-CoV-2 3_SL1 RNA
SARS-CoV-2 3_SL1+2 RNA = test system: SARS-CoV-2 3_SL1+2 RNA
SARS-CoV-2 3_SL2 RNA = test system: SARS-CoV-2 3_SL2 RNA
SARS-CoV-2 3_SL3base RNA = test system: SARS-CoV-2 3_SL3base RNA
SARS-CoV-2 3_s2m RNA = test system: SARS-CoV-2 3_s2m RNA

Measured: NMR binding call

CNC(C)c1sc(C)nc1C (stereo not given)
0: all assays above

CCOC(=O)N1CCOCC1
0: all assays above

COc1ccc(N2CC(C(N)=O)CC2=O)cc1 (stereo not given)
0: all assays above

N#CCC(=O)N1CCC(C(N)=O)CC1
0: all assays above

CNc1ncc(C(F)(F)F)cc1Cl
0: all assays above

CCn1cc(C(=O)NCc2ccc(F)cc2)cn1
0: all assays above

O=C(c1ccco1)N1CCN(C(=O)C2CC2)CC1
0: all assays above

2 neighbouring entries out of the list so far:
COc1ccc(N2CC(C(N)=O)CC2=O)cc1 (stereo not given)
0: all assays above

N#CCC(=O)N1CCC(C(N)=O)CC1
0: all assays above

(list continues)

CCNC(=O)c1ccc(N(C)C)c(F)c1
0: all assays above

Oc1ccc(CN2CCOCC2)c2cccnc12
0: all assays above

CC1CCCCN1C(=O)c1cnccn1 (stereo not given)
0: all assays above

NC(=O)C1CCC(F)(F)CC1
0: all assays above

Cc1n[nH]c(C)c1S(=O)(=O)N(C)C
0: all assays above

O=C(Nc1ccc(O)cc1)N1CCOCC1
0: all assays above

CCc1ccc(NC(=O)c2cnccn2)cc1
0: all assays above

CN(C)Cc1ccc(C#N)cc1
0: all assays above
